Test results from PubChem BioAssay AID540276 (National Center for Advancing Translational Sciences (NCATS), 2011).
Among all 300,000 compounds or so, about 5,400 (1.8%) were called active. The shares of active, inactive and inconclusive entries below differ from those in the screen. Calls come from the whole dose curve; tested in HEK293 cells. Potencies beside an inconclusive call are fits to weak or partial responses and may not hold up.

assay: qHTS for inhibitors of binding or entry into cells for Marburg Virus; conditions: Marburg virus pseudotyped entry inhibition, cell reporter; activity change, negative = inhibition: at 37.8 µM (top of the series) unless noted
% is set by controls: 0 for no effect and ±100 for the full control effect; potency is the fitted concentration of half-maximal effect.

Row | Structure (SMILES) | activity change, negative = inhibition | Potency
1 | Cc1ccc(NC(=O)CSc2nnc(CNC(=O)c3ccco3)n2C)cc1C | inactive: -5.03% | –
2 | COc1cccc(CCNCc2ccc(SC)cc2)c1 | – | inconclusive: 1.26 µM [inhibitor, single point]
3 | Cc1ccc(NC(=O)N(Cc2cn(C)c3ccccc23)C2CCCCC2)cc1C | – | inconclusive: 6.31 µM [inhibitor, single point]
4 | CC(C)CC(=O)Nc1cccc(NC(=O)CC(C)C)n1 | – | inconclusive: 10 µM [activator, single point]
5 | COc1ccc(CNC(=O)C2CCN(C(=O)c3csc(Nc4ccc(C)cc4)n3)CC2)cc1 | – | inconclusive: 0.562 µM [inhibitor, full curve, poor fit]
6 | Cc1cc(C)cc(OCC(=O)Nc2ccc(-c3nc4ccccc4s3)cc2)c1 | inactive: 18.9% [at 46.1 µM] | –
7 | CC/C(=N\NC(=O)Nc1ccccc1)c1ccccc1 | inactive: 3.29% | –
8 | CCCN(Cc1ccccc1)C(=S)Nc1ccc(OCC)cc1 | – | inconclusive: 35.5 µM [inhibitor, single point]
9 | N=c1sccn1CC(=O)Nc1ccc(Cl)c(S(=O)(=O)N2CCOCC2)c1 | – | inconclusive: 0.112 µM [activator, full curve, poor fit]
10 | COc1ccc(CC(=O)Nc2sc3c(c2C(N)=O)CCCC3)cc1OC | – | inconclusive: 5.62 µM [inhibitor, full curve]
11 | CSc1cccc(N2CC(C(=O)Nc3cccc(S(=O)(=O)N4CCCC4)c3)CC2=O)c1 (stereo unspecified) | – | inconclusive: 35.5 µM [inhibitor, single point]
12 | CC(=O)CSc1nnc(-c2ccncc2)n1C | inactive: 7.28% | –
13 | O=C(c1ccc2c(c1)OCO2)C1CCCN(C2CCN(CCc3ccccc3)CC2)C1 (stereo unspecified) | – | active: 7.08 µM
14 | CC(=O)Nc1ccc(NC(=O)C(C)n2nc([N+](=O)[O-])c(Br)c2C)cc1 (stereo unspecified) | – | inconclusive: 23.1 µM [activator, partial curve, poor fit]
15 | O=C(CSc1ccc2ccccc2n1)c1ccccc1 | inactive: 3.18% [at 46.1 µM] | –
16 | Cc1noc(C)c1COC(=O)C1CCN(S(=O)(=O)c2c(Cl)cccc2Cl)CC1 | – | inconclusive: 6.31 µM [activator, single point]
17 | Cc1ccc(NC(=O)C2OCCc3ccccc32)cc1 (stereo unspecified) | – | inconclusive: 3.98 µM [inhibitor, single point]
18 | O=C(Nc1ccc2c(c1)OCO2)c1noc2c1CCCCC2 | – | inconclusive: 29.1 µM [inhibitor, single point]
19 | CSc1ccccc1NC(=O)c1cccs1 | – | inconclusive: 31.6 µM [activator, single point]
20 | CN1CCN(S(=O)(=O)c2ccc(C(=O)Nc3ccccc3)cc2)CC1 | inactive: 18.3% | –
21 | O=C(CSc1ccccc1)NCCc1ccccc1 | – | inconclusive: 11.2 µM [activator, partial curve]
22 | COc1ccc(C(C#N)c2ccc(=O)[nH]n2)cc1 (stereo unspecified) | – | inconclusive: 3.16 µM [inhibitor, partial curve, poor fit]
23 | CN1CCc2nc(SCC(=O)OC(C)(C)C)c(C#N)cc2C1 | – | inconclusive: 3.16 µM [activator, single point]
24 | COc1cc(/C=C2\C(=O)N(C)C(=S)N2C)ccc1O | inactive: -36.1% | –

Row | Structure (SMILES) | activity change, negative = inhibition | Potency
25 | COc1ccccc1/C=N/NC(=O)c1cccc(OC(F)(F)C(F)F)c1 | inactive: -4.22% | –
26 | CC(C)Cc1nnc(NC(=O)C2CC(=O)N(c3ccc4c(c3)OCCO4)C2)s1 (stereo unspecified) | inactive: 19.6% | –
27 | O=C(CN1C(=O)NC(Cc2ccccc2)C1=O)Nc1ccccc1 (stereo unspecified) | inactive: 18.1% | –
28 | COc1cccc(/C=C/C(=O)NNC(=O)CCN2CCN(Cc3ccccc3)CC2)c1 | – | inconclusive: 22.4 µM [inhibitor, single point]
29 | O=c1oc2ccccc2cc1-c1csc(Nc2nc3c(F)cccc3s2)n1 | – | inconclusive: 2.82 µM [inhibitor, full curve, poor fit]
30 | CC(=O)C1=C(C)N(Cc2ccccc2)C(=O)N[C@H]1CCc1ccccc1 | – | inconclusive: 0.092 µM [activator, full curve, poor fit]
31 | CCOc1ccc(Br)cc1C(=O)N/N=C/c1ccccn1 | – | inconclusive: 7.08 µM [inhibitor, full curve]
32 | CCN1C(=O)C(CC(=O)Nc2ccc(OC)cc2)N(CCCN2CCN(c3ccc(OC)cc3)CC2)C1=S (stereo unspecified) | – | inconclusive: 14.1 µM [inhibitor, single point]
33 | Cn1c(=O)[nH]c(=O)c2c1nc(Br)n2CC(O)COc1ccc(Cl)cc1 (stereo unspecified) | – | inconclusive: 29.1 µM [inhibitor, single point]
34 | CCOc1ccc(N2C(=O)CC(NC3CCN(C(=O)c4ccc(F)cc4)CC3)C2=O)cc1 (stereo unspecified) | inactive: 1.24% | –
35 | CCOC(=O)/C(C(=O)Nc1ccc(Br)cc1)=C1/NC(C)(C)Cc2ccccc21 | inactive: 22.6% | –
36 | CCOC(=O)c1ccc(NC(=O)C2=C(C)Nc3nc(SCc4ccc(Cl)cc4)nn3C2c2ccc(OC)cc2)cc1 (stereo unspecified) | inactive: 0.111% [at 46.1 µM] | –
37 | O=C(CCCCCn1c(SCc2ccncc2)nc2ccccc2c1=O)NCc1ccco1 | – | inconclusive: 29.1 µM [inhibitor, partial curve, poor fit]
38 | CN(C)S(=O)(=O)c1cccc(NC(=O)c2n[nH]c(=O)c3ccccc23)c1 | – | inconclusive: 3.16 µM [inhibitor, partial curve, poor fit]
39 | CCn1cc(C(=O)NCc2cccnc2)c(=O)c2cc(F)c(N3CCN(C(=O)c4ccco4)CC3)cc21 | – | inconclusive: 11.2 µM [inhibitor, single point]
40 | Cn1nc(C(=O)N2CCN(S(=O)(=O)c3ccc(Cl)cc3)CC2)c2ccccc2c1=O | inactive: -23.6% | –
41 | CCN1CCN(c2ccc(NS(=O)(=O)c3c(C)nc4sccn4c3=O)cc2Cl)CC1 | – | inconclusive: 35.5 µM [inhibitor, single point]
42 | Clc1ccc(-c2cc(-c3nnc4n3CCCCC4)c3ccccc3n2)cc1 | inactive: -6.83% | –
43 | CCCN(C(=O)CSc1cc(-c2ccccc2)c2ccc(OC)cc2n1)C1CCS(=O)(=O)C1 (stereo unspecified) | inactive: -8.32% | –
44 | CC(=O)Nc1ccc(NC(=O)c2sc(-c3ccccc3)nc2C)cc1 | – | inconclusive: 8.91 µM [inhibitor, partial curve]
45 | O=[N+]([O-])c1ccc(-c2cnc3ccccc3n2)cc1 | inconclusive: 35.3% [activator] | –
46 | CCC1CCCCN1CC(=O)N1CCCc2c1c(=O)oc1ccc(OCc3ccccc3)cc21 (stereo unspecified) | – | inconclusive: 35.5 µM [inhibitor, single point]
47 | CC(C)(C)n1cnc2cc(NCc3ccccc3O)ccc21 | – | inconclusive: 28.2 µM [inhibitor, single point]
48 | CC(=O)Nc1ccc(C2(O)COc3ccccc3O2)cc1 (stereo unspecified) | inactive: 2.76% | –

Pulled one by one from the list above, 5 records:
Row | Structure (SMILES) | activity change, negative = inhibition | Potency
3 | Cc1ccc(NC(=O)N(Cc2cn(C)c3ccccc23)C2CCCCC2)cc1C | – | inconclusive: 6.31 µM [inhibitor, single point]
37 | O=C(CCCCCn1c(SCc2ccncc2)nc2ccccc2c1=O)NCc1ccco1 | – | inconclusive: 29.1 µM [inhibitor, partial curve, poor fit]
12 | CC(=O)CSc1nnc(-c2ccncc2)n1C | inactive: 7.28% | –
47 | CC(C)(C)n1cnc2cc(NCc3ccccc3O)ccc21 | – | inconclusive: 28.2 µM [inhibitor, single point]
38 | CN(C)S(=O)(=O)c1cccc(NC(=O)c2n[nH]c(=O)c3ccccc23)c1 | – | inconclusive: 3.16 µM [inhibitor, partial curve, poor fit]

Continuation:

Row | Structure (SMILES) | activity change, negative = inhibition | Potency
49 | Cc1sc2nc3n(c(=O)c2c1C)CCCCC3 | – | inconclusive: 25.1 µM [activator, partial curve, poor fit]
50 | CCn1c(O)c(/C=C2\C=Nc3ccccc32)sc1=Nc1ccccc1 | inactive: -11.7% | –
51 | CCOC(=O)Cc1c(C)[nH]c(=S)[nH]c1=O | inactive: -0.227% | –
52 | COc1ccc(CNC(=S)Nc2ccccc2C)cc1 | – | inconclusive: 0.562 µM [activator, full curve, poor fit]
53 | CC(=O)Oc1ccc2occ(C(=O)c3ccccc3)c2c1 | – | inconclusive: 11.2 µM [activator, partial curve, poor fit]
54 | COc1ccc(N2C(=O)CCC(C(=O)NCCCN3CCC(C)CC3)C2c2ccc(OC)c(OC)c2)cc1 (stereo unspecified) | – | inconclusive: 14.1 µM [inhibitor, partial curve, poor fit]
55 | Cc1cccc(-n2nc(C)c3c2NC(=O)CSC3c2ccccc2Cl)c1 (stereo unspecified) | – | inconclusive: 22.4 µM [activator, single point]
56 | N#Cc1c(N)nc2c(c1N)CC(=O)N2c1ccccc1-c1ccccc1 | – | inconclusive: 0.178 µM [inhibitor, full curve, poor fit]
57 | C#CCOc1c(Cl)cc(/C=N/NC(N)=S)cc1OCC | – | inconclusive: 15.8 µM [inhibitor, single point]
58 | COc1ccc(C2C3=C(CCCC3=O)N(CC(=O)O)C3=C2C(=O)CCC3)cc1Cl | inactive: 9.62% [at 46.1 µM] | –
59 | CC(C)c1ccc(-n2c(O)c(/C=N/NC(=O)c3ccccc3O)c(=O)[nH]c2=S)cc1 | inactive: -1.08% [at 46.1 µM] | –
60 | O=C(CCc1ccccc1)Nc1ccc2c(c1)C(=O)OC2 | inactive: -6.86% | –
61 | Cc1ccc(-c2nnc(SCCC(=O)N3CCOCC3)o2)cc1 | inactive: -11.2% [at 46.1 µM] | –
62 | COc1ccc(CNC(=O)Cn2nnc(-c3ccc(S(C)(=O)=O)cc3)n2)cc1 | – | inconclusive: 28.2 µM [inhibitor, single point]
63 | COc1cc(SC)ccc1C(=O)Nc1nccs1 | – | inconclusive: 2.51 µM [inhibitor, full curve, poor fit]
64 | Cc1cccc(C)c1OCC(=O)Nc1cccc(C(=O)O)c1 | – | inconclusive: 15.8 µM [inhibitor, single point]
65 | NS(=O)(=O)c1ccc(CCNC(=O)CNC(=O)c2ccc(Oc3ccccc3)cc2)cc1 | inactive: -17.1% [at 46.1 µM] | –
66 | CCOc1ccc(C(=O)Nc2ccc(C(F)(F)F)n(C)c2=O)cc1 | inactive: 4.45% [at 46.1 µM] | –
67 | c1ccc(CSc2ccc(-c3cccs3)nn2)cc1 | – | inconclusive: 35.5 µM [inhibitor, single point]
68 | CC(C)(C)C1=NN(c2ccc([N+](=O)[O-])cc2)C(c2ccccc2)C1 (stereo unspecified) | – | inconclusive: 35.5 µM [inhibitor, single point]
69 | CCCC1=[N+](CC(=O)c2ccc(Br)cc2)CCn2cccc21 | – | inconclusive: 35.5 µM [inhibitor, single point]
70 | Cc1ccc(-n2[nH]c3c4c(ccc3c2=O)C(=O)c2ccccc2C4=O)cc1 | – | inconclusive: 35.5 µM [activator, partial curve, poor fit]
71 | Cc1ccc2nc(NC(=O)c3ccc(NS(=O)(=O)c4cccs4)cc3)sc2c1 | – | inconclusive: 5.8 µM [activator, full curve, poor fit]
